Laboratory results published in the supplement of paper PMC10849652.
This is one part of the list.

Protein sequences, listed by entry. Tags and fused reporters are not part of them. Lines headed by an entry give the natural chain unless they say otherwise; changes in a name come on top.
UniProt Q59H18: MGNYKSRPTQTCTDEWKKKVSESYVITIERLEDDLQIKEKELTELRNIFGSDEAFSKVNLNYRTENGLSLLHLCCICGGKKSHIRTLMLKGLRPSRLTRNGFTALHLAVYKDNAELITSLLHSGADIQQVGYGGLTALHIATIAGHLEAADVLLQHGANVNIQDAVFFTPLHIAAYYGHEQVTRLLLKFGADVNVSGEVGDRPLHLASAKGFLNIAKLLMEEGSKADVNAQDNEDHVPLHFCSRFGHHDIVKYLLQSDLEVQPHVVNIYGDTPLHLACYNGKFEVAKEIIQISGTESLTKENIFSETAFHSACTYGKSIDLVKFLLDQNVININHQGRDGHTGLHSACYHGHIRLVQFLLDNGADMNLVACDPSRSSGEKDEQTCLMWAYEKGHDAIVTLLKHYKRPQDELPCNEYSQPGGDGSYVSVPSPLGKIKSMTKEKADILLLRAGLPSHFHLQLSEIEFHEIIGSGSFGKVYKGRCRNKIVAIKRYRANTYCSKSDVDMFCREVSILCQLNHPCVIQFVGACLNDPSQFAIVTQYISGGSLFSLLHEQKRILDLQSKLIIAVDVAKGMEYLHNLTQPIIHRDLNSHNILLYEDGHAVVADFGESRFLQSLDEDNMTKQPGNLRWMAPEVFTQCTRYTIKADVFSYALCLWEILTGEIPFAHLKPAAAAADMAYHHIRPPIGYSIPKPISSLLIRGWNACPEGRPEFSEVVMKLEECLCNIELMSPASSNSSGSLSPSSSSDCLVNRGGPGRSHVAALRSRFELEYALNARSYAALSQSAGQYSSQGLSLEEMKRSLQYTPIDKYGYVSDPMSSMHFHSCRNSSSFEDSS
UniProt Q12888: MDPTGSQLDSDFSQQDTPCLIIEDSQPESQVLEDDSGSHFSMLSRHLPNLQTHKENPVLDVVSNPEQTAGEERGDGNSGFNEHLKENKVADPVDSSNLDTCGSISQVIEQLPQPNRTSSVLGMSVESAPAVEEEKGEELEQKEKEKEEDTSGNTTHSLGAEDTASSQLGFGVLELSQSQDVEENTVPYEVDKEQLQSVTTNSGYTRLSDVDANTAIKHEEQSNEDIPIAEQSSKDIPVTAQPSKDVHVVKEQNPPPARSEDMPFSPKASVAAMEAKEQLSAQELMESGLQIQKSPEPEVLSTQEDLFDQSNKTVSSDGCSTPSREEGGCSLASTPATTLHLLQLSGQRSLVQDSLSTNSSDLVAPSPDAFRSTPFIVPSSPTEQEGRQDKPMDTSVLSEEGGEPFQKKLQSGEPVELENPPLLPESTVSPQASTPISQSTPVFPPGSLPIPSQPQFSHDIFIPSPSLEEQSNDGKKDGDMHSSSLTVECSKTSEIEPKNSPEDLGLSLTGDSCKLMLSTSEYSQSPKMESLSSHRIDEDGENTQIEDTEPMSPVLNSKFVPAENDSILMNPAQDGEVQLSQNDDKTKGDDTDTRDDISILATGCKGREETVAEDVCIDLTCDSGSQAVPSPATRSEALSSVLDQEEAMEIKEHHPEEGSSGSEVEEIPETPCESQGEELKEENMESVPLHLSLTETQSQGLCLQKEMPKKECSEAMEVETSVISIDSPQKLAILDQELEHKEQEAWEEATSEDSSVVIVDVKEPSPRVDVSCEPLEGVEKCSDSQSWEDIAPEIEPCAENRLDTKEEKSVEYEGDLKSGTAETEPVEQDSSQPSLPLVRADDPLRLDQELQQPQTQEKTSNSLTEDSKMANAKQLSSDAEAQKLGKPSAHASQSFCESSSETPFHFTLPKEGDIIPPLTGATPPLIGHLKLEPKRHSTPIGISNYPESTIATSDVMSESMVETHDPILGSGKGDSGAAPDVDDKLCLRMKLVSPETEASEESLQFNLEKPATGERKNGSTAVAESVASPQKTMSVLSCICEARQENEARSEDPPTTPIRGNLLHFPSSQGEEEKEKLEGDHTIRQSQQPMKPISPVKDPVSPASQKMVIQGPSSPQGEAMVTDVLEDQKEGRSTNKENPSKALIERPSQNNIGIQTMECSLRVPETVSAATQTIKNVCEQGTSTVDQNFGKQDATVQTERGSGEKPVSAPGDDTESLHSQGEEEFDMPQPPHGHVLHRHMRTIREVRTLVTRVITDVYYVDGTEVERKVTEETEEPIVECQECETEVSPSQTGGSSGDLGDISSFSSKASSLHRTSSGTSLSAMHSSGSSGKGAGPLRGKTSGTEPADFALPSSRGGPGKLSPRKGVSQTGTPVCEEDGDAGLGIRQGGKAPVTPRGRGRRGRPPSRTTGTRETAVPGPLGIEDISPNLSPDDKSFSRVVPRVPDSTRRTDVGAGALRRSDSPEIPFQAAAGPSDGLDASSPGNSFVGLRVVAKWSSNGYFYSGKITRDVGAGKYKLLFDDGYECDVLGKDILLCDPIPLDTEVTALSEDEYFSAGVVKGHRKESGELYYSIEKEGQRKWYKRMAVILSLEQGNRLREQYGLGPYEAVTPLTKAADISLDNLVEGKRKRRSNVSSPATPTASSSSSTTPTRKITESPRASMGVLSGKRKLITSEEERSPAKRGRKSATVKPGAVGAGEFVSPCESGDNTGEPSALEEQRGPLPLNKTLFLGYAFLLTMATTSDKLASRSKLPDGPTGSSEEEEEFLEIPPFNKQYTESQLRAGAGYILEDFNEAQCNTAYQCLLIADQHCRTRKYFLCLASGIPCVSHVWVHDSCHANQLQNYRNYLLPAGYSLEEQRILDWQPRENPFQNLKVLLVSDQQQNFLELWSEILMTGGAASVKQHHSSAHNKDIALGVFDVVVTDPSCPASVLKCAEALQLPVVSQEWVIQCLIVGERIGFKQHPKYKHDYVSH
UniProt O95379: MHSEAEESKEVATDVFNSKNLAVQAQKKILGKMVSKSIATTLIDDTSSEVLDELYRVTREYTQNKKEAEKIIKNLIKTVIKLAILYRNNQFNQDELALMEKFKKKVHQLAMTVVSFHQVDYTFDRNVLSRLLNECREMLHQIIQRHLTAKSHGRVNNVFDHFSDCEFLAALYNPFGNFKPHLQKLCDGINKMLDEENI
UniProt Q96MH6: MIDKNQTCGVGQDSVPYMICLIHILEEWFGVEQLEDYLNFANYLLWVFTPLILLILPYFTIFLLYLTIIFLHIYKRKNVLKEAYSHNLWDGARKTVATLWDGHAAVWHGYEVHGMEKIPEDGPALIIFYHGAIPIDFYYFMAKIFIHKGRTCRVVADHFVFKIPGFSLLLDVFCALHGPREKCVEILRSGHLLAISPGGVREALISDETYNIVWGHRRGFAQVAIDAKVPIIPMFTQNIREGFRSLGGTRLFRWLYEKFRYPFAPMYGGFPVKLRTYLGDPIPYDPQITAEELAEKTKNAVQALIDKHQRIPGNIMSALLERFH
UniProt Q9H1E5: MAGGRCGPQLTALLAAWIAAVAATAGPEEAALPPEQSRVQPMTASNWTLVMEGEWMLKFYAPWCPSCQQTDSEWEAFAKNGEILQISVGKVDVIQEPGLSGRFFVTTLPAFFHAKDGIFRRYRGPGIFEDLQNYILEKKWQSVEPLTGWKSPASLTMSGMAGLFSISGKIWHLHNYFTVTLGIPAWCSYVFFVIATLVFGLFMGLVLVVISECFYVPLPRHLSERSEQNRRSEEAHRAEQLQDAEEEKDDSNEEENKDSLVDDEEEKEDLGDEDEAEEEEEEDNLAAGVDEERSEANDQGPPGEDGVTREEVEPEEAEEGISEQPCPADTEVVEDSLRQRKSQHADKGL
UniProt Q13641: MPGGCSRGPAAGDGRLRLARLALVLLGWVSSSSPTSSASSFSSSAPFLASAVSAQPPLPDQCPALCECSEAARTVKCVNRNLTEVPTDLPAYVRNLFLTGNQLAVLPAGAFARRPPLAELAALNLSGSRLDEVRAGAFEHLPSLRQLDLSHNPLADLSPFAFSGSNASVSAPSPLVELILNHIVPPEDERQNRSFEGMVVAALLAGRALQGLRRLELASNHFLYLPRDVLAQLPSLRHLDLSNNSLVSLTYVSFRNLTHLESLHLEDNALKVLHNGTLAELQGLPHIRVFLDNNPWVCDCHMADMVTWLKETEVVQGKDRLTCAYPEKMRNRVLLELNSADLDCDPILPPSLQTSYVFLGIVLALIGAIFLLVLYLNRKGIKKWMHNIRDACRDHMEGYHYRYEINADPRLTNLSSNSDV
UniProt Q86XT9, whole entry, looked up: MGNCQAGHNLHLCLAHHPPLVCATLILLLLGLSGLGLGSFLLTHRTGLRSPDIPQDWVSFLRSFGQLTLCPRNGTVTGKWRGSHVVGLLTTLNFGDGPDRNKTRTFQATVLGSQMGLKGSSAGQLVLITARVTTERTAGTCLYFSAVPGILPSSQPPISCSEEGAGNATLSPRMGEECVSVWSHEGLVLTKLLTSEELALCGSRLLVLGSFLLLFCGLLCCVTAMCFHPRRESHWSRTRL
UniProt Q96A57: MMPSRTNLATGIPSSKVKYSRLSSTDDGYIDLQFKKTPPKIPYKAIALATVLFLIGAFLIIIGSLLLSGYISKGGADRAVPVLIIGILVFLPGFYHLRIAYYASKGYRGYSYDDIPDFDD
UniProt Q8N9V7: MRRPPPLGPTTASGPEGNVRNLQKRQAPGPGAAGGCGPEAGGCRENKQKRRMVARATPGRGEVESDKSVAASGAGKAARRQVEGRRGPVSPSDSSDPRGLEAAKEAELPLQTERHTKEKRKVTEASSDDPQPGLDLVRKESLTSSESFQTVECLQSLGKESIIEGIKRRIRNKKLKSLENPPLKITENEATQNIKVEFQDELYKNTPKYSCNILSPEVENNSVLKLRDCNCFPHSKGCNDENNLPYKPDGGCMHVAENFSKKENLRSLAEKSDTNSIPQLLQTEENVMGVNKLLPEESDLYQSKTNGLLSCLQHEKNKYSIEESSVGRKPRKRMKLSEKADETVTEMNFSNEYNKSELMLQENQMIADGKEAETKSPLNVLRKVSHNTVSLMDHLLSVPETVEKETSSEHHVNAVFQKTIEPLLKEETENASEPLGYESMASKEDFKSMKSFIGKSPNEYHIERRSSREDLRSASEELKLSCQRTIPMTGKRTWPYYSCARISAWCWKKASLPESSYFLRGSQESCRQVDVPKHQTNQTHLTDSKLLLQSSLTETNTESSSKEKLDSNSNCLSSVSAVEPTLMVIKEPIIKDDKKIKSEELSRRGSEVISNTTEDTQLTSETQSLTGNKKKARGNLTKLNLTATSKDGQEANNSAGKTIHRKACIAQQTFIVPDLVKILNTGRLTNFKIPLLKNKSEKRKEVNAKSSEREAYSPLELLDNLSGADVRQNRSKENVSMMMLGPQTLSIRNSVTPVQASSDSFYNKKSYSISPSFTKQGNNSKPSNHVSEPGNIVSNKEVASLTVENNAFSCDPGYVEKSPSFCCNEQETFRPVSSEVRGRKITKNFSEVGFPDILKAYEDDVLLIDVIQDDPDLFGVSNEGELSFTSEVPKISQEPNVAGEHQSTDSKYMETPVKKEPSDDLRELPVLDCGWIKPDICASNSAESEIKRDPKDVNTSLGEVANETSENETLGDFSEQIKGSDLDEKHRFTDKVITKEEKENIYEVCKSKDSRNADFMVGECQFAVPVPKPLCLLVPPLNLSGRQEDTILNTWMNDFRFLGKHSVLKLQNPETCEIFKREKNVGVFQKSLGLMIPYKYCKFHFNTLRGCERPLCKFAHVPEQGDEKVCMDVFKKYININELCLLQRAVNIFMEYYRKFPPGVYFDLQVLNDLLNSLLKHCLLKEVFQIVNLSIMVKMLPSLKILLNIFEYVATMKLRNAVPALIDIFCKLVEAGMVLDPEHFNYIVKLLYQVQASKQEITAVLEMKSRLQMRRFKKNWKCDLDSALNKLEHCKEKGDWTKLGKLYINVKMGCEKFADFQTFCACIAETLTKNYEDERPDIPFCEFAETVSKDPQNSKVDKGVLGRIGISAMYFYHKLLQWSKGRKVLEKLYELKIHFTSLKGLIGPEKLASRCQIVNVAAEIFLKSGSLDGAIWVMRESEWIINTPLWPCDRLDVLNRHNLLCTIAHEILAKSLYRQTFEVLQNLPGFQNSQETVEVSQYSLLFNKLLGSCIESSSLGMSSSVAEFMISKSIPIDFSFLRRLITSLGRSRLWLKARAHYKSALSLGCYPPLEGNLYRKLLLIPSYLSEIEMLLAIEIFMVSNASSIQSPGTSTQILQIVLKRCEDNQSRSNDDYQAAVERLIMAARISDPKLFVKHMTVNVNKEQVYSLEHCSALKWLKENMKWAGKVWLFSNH

Assays:
Assay in all cases: log2 fold change, soluble protein after heating vs DMSO (PISA); higher = thermal stabilisation; K562 lysate, 10 uM; active = over 0.2 and 3.5 SD of the protein, either way, in both replicates (recomputed)
erlotinib = compound: C#Cc1cccc(Nc2ncnc3cc(OCCOC)c(OCCOC)cc23)c1 [erlotinib]
In short: (§1)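 The values are log-two fold changes in thermal stability compared with solvent controls and come from duplicates. They were obtained by TMTpro 16plex LC-MS/MS, with channel sums equalised, on the supernatant after 21,000xg for 90 min. That supernatant came from crude K562 extract at 1 mg/mL protein treated with 10 μM compound for 30 min, heated for 3 min across 48°C-58°C, pooled and brought to 0.5% NP-40 at 4°C.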

[1] = compound: C/C(=N\NC(=O)C1=CC(=CC=C1)S(=O)(=O)N2CCOCC2)/C3=C(C=CC(=C3)Cl)O
In short: as §1

[2] = compound: C1=CC(=CC=C1C2=NC3=C(N2)C=C(C=C3)C(=O)N)OC4=CC=C(C=C4)Cl
In short: as §1

[3] = compound: C1=CC2=C(C=CC(=C2)/C=C\3/C(=O)NC(=NCC4=CC=CS4)S3)N=C1
In short: as §1

[4] = compound: C1=CC2=NC=CN=C2C=C1/C=C/3\C(=O)NC(=O)S3
In short: as §1

[5] = compound: C1=CC=C(C=C1)C2=NC(=C(N2)C3=CC=NC=C3)C4=CC(=C(C=C4)Cl)O
In short: as §1

[6] = compound: C1=CC=C2C(=C1)C3=NNC4=CC=CC(=C43)C2=O
In short: as §1

[7] = compound: C1CCN(C1)C(=O)NC2=CC=CC(=C2)NC3=NC=C(C(=N3)NCCC4=CN=CN4)Br
In short: as §1

[8] = compound: C1CN(CCC1(CC2=CC=C(C=C2)Cl)N)C3=NC=NC4=C3C=CN4
In short: as §1

IRAK-1-4 Inhibitor I = compound: C1COCCN1CCN2C3=CC=CC=C3N=C2NC(=O)C4=CC(=CC=C4)[N+](=O)[O-] [IRAK-1-4 Inhibitor I]
In short: as §1

ibrutinib = compound: C=CC(=O)N1CCC[C@@H](n2nc(-c3ccc(Oc4ccccc4)cc3)c3c(N)ncnc32)C1 [ibrutinib]
In short: as §1

[9] = compound: CC(=O)c1cnc2ccc(-c3cc(Cl)c(O)c(Cl)c3)nc2c1N[C@H]1CC[C@H](CN(C)C)CC1
In short: as §1

ralimetinib = compound: CC(C)(C)Cn1c(N)nc2ccc(-c3[nH]c(C(C)(C)C)nc3-c3ccc(F)cc3)nc21 [ralimetinib]
In short: as §1

[10] = compound: CC(C)(O)CC(=O)NCCn1ccc2ncnc(Nc3ccc(Oc4cccc(C(F)(F)F)c4)c(Cl)c3)c21
In short: as §1

[11] = compound: CC(C)C1=C2N=C(C=C(N2N=C1)NCC3=CC=CC=C3)NCCCCCCN
In short: as §1

[12] = compound: CC1=C(C(CC(=O)N1)C2=CC=C(C=C2)C(F)(F)F)C(=O)NC3=C(C=C4C(=C3)C=NN4)F
In short: as §1

[13] = compound: CC1=C(C2=C(C=C1)C(=O)C3=CC=CC=C3N2CCCN)C
In short: as §1

[14] = compound: CC1=C(C=C(C=C1)NC(=O)C2=CC(=CC=C2)C(C)(C)C#N)NC3=CC4=C(C=C3)N=CN(C4=O)C
In short: as §1

[15] = compound: CC1=C(C=C(C=C1)NC(=O)C2=CC(=CC=C2)N(C)C)NC(=O)C3=CC=C(C=C3)O
In short: as §1

[16] = compound: CC1=CC=C(C=C1)SC2=C3C=C(SC3=CN=C2)C(=O)N
In short: as §1

Measured: log2 fold change

TNNI3K isoform 1 (UniProt Q59H18)
inactive: erlotinib 0.27 | [1] 0.028 | [2] 0.122 | [3] -0.014 | [4] 0.033 | [5] 0.023 | [6] -0.052 | [7] 0.089 | [8] 0.057 | IRAK-1-4 Inhibitor I -0.032 | ibrutinib 0.055 | [9] -0.056 | ralimetinib 0.07 | [10] -0.04 | [11] -0.299 | [12] 0.139 | [13] -0.028 | [14] 0.058 | [15] -0.028 | [16] 0.059

TP53BP1 isoform 2 (UniProt Q12888)
inactive: erlotinib -0.004 | [1] 0 | [2] 0.015 | [3] 0.008 | [4] -0.01 | [5] -0.004 | [6] -0.02 | [7] 0.006 | [8] 0.001 | IRAK-1-4 Inhibitor I 0.012 | ibrutinib -0.011 | [9] -0.017 | ralimetinib 0.017 | [10] -0.013 | [11] -0.023 | [12] 0.011 | [13] -0.033 | [14] 0.006 | [15] 0.013 | [16] -0.012

TNFAIP8 isoform 4 (UniProt O95379)
inactive: erlotinib -0.006 | [1] 0.072 | [2] -0.046 | [3] -0.038 | [4] 0.002 | [5] 0.026 | [6] -0.123 | [7] -0.008 | [8] 0.017 | IRAK-1-4 Inhibitor I -0.025 | ibrutinib -0.027 | [9] -0.01 | ralimetinib -0.114 | [10] 0.003 | [11] -0.023 | [12] -0.034 | [13] 0.017 | [14] -0.054 | [15] 0.035 | [16] -0.015

TMEM68 (UniProt Q96MH6)
inactive: erlotinib 0 | [1] -0.032 | [2] -0.008 | [3] 0.038 | [4] -0.015 | [5] -0.017 | [6] -0.05 | [7] -0.007 | [8] -0.055 | IRAK-1-4 Inhibitor I 0.045 | ibrutinib -0.008 | [9] 0.017 | ralimetinib 0.118 | [10] -0.058 | [11] -0.055 | [12] 0.042 | [13] 0.003 | [14] -0.023 | [15] 0.019 | [16] -0.035

TMX4 (UniProt Q9H1E5)
inactive: erlotinib -0.011 | [1] 0.53 | [2] -0.073 | [3] 0.025 | [4] -0.015 | [5] -0.094 | [6] -0.035 | [7] -0.028 | [8] -0.005 | IRAK-1-4 Inhibitor I -0.04 | ibrutinib -0.029 | ralimetinib 0.008 | [10] -0.081 | [11] -0.016 | [12] 0.044 | [13] -0.058 | [14] 0.036 | [15] -0.046

TPBG (UniProt Q13641)
inactive: erlotinib 0.004 | [1] 0.087 | [2] -0.046 | [3] -0.074 | [6] -0.08 | [7] -0.034 | [8] 0.092 | [11] 0.071 | [13] -0.277 | [14] 0.151

TMEM219 (UniProt Q86XT9)
inactive: erlotinib 0.062 | [1] 0.024 | [2] 0.106 | [3] 0.106 | [4] -0.062 | [5] -0.038 | [6] -0.081 | [7] 0.101 | [8] 0.083 | IRAK-1-4 Inhibitor I 0.008 | ibrutinib 0.044 | [9] 0.041 | ralimetinib -0.059 | [10] 0.014 | [11] -0.06 | [12] 0.025 | [13] 0.01 | [14] 0.045 | [15] -0.063 | [16] -0.034

TMEM230 isoform 2 (UniProt Q96A57)
inactive: erlotinib 0.015 | [1] 0.013 | [2] -0.055 | [3] 0.057 | [4] -0.179 | [5] -0.211 | [6] -0.012 | [7] -0.011 | [8] 0.04 | IRAK-1-4 Inhibitor I 0.032 | ibrutinib 0.015 | [9] -0.012 | ralimetinib 0.102 | [10] -0.055 | [11] 0.114 | [13] -0.033 | [14] -0.049 | [15] 0.04 | [16] -0.053

TOLLIP (UniProt Q9H0E2)
inactive: erlotinib 0.039 | [1] -0.025 | [2] 0.016 | [3] 0.006 | [4] -0.015 | [5] -0.027 | [6] 0.003 | [7] -0.071 | [8] -0.026 | IRAK-1-4 Inhibitor I 0.007 | ibrutinib 0.009 | [9] 0.001 | ralimetinib 0.002 | [10] -0.004 | [11] -0.016 | [12] 0.047 | [13] -0.009 | [14] 0.235 | [15] 0.025 | [16] -0.005

TNIK (UniProt C9J338)
inactive: erlotinib 0.067 | [1] -0.048 | [2] 0.067 | [3] -0.071 | [4] -0.064 | [6] -0.112 | [7] -0.101 | [8] 0.064 | ibrutinib 0.041 | [9] -0.076 | [11] 0.025 | [13] -0.042 | [14] 0.16 | [16] -0.114

TPRG1L (UniProt Q5T0D9)
inactive: erlotinib 0.023 | [1] 0.149 | [2] 0 | [3] -0.007 | [5] 0.211 | [6] -0.134 | [7] 0.019 | [8] -0.081 | IRAK-1-4 Inhibitor I -0.073 | [9] 0.077 | ralimetinib -0.069 | [10] 0.143 | [11] -0.024 | [12] -0.062 | [13] 0.028 | [14] 0.116 | [15] -0.028 | [16] 0.019

TOPAZ1 (UniProt Q8N9V7)
inactive: erlotinib -0.012 | [1] 0.806 | [2] 0.003 | [3] -0.073 | [4] -0.062 | [5] -0.553 | [6] -0.063 | [7] -0.188 | [8] -0.16 | IRAK-1-4 Inhibitor I -0.07 | ibrutinib -0.086 | [9] 0.125 | ralimetinib 0.256 | [10] -0.123 | [11] 0.01 | [15] -0.562 | [16] 0.079
